Results are given in words; binding and its absence hold for the method and conditions named. For some of these results: In cells and extracts the contact can be indirect. Some results given as binding are weak or reduced against the parent protein; the word gives no strength. For some of these results: Sequences can lack the tags named with a protein.
Experiments:
[1] = target: CaM3 (yeast two-hybrid fusion) (Arabidopsis) (UniProt P0DH98); experiment: two-hybrid
[2] = target: CaM1 (yeast two-hybrid fusion) (Arabidopsis) (UniProt P0DH95); experiment: two-hybrid
[3] = target: CaM2 (yeast two-hybrid fusion) (Arabidopsis) (UniProt P0DH97); experiment: two-hybrid
[4] = target: T1, SPR2 (yeast two-hybrid fusion) (Arabidopsis) (UniProt Q9T041); experiment: two-hybrid
T1 sequence: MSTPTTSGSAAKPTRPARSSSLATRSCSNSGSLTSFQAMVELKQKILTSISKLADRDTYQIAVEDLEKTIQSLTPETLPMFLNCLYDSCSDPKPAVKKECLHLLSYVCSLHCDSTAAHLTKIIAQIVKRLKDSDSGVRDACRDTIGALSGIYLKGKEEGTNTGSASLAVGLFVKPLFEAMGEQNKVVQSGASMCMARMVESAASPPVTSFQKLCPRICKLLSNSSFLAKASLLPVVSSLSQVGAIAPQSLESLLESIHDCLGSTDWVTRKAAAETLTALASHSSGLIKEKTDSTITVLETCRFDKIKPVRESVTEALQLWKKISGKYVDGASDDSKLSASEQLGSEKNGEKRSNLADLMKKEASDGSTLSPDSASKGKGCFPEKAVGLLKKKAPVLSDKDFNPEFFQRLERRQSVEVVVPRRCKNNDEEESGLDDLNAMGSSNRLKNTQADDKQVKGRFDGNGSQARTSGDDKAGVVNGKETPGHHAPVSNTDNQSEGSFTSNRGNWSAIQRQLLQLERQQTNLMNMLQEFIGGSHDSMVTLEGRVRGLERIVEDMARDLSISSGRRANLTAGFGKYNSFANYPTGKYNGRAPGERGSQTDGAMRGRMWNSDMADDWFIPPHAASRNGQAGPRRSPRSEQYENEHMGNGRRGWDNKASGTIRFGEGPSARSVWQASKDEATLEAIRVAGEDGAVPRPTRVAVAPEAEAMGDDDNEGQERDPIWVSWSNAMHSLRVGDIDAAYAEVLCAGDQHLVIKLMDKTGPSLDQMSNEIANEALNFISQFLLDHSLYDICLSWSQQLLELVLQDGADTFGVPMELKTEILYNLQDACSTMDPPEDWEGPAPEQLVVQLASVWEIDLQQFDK

Chains of the proteins cited; added tags and fusions are not shown.
UniProt F4JHN2: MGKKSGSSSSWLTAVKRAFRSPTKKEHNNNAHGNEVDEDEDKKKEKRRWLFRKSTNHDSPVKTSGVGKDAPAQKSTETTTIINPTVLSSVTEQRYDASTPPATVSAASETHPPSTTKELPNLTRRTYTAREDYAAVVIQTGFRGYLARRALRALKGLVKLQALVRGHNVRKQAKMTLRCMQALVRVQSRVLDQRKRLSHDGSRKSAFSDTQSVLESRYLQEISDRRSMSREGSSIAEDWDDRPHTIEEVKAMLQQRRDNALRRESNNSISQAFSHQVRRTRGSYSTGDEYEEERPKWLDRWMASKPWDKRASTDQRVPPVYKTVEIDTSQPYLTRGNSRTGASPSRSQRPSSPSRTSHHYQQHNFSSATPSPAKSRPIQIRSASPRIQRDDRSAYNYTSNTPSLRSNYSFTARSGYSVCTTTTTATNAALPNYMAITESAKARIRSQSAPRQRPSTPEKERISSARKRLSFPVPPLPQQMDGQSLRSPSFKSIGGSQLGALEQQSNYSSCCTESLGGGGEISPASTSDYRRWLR
UniProt Q9MAM4: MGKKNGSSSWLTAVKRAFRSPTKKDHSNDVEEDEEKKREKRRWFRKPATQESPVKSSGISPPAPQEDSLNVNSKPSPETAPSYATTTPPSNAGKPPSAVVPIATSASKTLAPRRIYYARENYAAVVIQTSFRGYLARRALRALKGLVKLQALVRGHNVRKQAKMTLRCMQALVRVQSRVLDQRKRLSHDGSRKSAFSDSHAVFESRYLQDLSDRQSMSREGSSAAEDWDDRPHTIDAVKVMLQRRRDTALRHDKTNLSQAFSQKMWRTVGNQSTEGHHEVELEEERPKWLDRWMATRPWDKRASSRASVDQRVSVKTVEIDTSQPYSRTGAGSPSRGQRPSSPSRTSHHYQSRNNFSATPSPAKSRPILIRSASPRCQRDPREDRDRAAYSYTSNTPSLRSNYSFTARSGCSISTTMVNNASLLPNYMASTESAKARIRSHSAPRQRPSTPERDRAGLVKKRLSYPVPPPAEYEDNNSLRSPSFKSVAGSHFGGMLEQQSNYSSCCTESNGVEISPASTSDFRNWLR

SPR2-nYFP (Arabidopsis) = target: T2, SPR2-nYFP (Arabidopsis) (UniProt Q9T041); experiment: split reporter
T2 sequence: T1 sequence

CaM1-nYFP (Arabidopsis) = CaM1-nYFP (Arabidopsis) (UniProt P0DH95); experiment: split reporter

binding [1]	binding [2]	binding [3]	binding [4]	binding (SPR2-nYFP (Arabidopsis))	binding (CaM1-nYFP (Arabidopsis))	Substance
binds	binds	binds	no binding			AtIQD17 (yeast two-hybrid fusion) (from UniProt F4JHN2 1-534)
binds	binds	binds	binds			IQD18-AD (yeast two-hybrid fusion) (from UniProt Q9MAM4 1-527)

Further lines, the substance ahead of its results:

Substance	binding [1]	binding [2]	binding [3]	binding [4]	binding (SPR2-nYFP (Arabidopsis))	binding (CaM1-nYFP (Arabidopsis))
CaM1 (yeast two-hybrid fusion) (from UniProt P0DH95 1-149)				no binding		
CaM2 (yeast two-hybrid fusion) (from UniProt P0DH97 1-149)				no binding		
CaM3 (yeast two-hybrid fusion) (from UniProt P0DH98 1-149)				no binding		
IQD18-cYFP (from UniProt Q9MAM4 1-527)					binds	binds

Source: article doi:10.1101/275560
